Results are given in words; binding and its absence hold for the method and conditions named. Binding seen in cells or lysates may run through a third protein. Some results given as binding are weak or reduced against the parent protein; the word gives no strength.
Experiments:
[1] = molecular target: CMTM4, endogenous in human H292 and HCC827 cells (human (endogenous in H292 and HCC827)) (UniProt Q8IZR5); test: co-IP; 4T1, LLC, H292 or HCC827 cells without transfection, starved overnight without serum; protein extract immuno-precipitated with anti-CMTM4 antibody, western blot with antibodies against EGFR and CMTM4
[2] = molecular target: CMTM4, endogenous in mouse 4T1 and LLC cells (mouse (endogenous in 4T1 and LLC)) (UniProt Q8CJ61); test: as above
[3] = molecular target: human CMTM4-Myc (human) (UniProt Q8IZR5); test: co-IP; lysate from 293T cells transfected with human CMTM4-Myc with or without Rab21-HA; immuno-precipitated by Myc antibody, blotted by HA antibody

The chains behind the UniProt entries cited, without tags or fusion partners.
UniProt Q8IZR5: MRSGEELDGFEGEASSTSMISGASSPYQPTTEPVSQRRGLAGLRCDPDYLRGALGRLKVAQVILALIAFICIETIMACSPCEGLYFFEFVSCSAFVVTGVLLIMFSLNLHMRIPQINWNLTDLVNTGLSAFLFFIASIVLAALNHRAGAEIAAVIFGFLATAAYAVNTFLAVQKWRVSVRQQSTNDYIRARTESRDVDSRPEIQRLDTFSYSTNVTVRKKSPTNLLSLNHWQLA
UniProt Q8CJ61: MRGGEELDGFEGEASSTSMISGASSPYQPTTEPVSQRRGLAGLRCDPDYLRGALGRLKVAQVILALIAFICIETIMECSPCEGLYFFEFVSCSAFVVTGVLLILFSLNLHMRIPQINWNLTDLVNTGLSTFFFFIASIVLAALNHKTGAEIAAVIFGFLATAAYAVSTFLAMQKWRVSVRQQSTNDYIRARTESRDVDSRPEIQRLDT
UniProt Q9UL25: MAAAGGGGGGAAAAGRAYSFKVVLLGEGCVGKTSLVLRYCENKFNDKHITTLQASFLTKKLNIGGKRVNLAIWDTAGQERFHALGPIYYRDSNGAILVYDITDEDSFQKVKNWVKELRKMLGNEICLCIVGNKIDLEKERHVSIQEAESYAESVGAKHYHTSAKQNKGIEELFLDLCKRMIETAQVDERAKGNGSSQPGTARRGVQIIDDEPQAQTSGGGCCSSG

With “EGFR, endogenous in human H292 cells (from UniProt P00533 25-1210) (receptor)” the binding [1] was “binds”.
For “EGFR, endogenous in mouse 4T1 and LLC cells (from UniProt Q01279 25-1210) (receptor)”, the binding [2] was “binds”.
With Rab21-HA (from UniProt Q9UL25 1-225) the binding [3] was “binds”.

Source: publication PMC11914105
